Data on two molecules can be found in article PMC4299599, “Quantification of cytosolic interactions identifies Ede1 oligomers as key organizers of endocytosis” (Molecular Systems Biology, 2014).

Protein sequences, listed by entry. Tags and fused reporters are not part of them.
UniProt Q12446: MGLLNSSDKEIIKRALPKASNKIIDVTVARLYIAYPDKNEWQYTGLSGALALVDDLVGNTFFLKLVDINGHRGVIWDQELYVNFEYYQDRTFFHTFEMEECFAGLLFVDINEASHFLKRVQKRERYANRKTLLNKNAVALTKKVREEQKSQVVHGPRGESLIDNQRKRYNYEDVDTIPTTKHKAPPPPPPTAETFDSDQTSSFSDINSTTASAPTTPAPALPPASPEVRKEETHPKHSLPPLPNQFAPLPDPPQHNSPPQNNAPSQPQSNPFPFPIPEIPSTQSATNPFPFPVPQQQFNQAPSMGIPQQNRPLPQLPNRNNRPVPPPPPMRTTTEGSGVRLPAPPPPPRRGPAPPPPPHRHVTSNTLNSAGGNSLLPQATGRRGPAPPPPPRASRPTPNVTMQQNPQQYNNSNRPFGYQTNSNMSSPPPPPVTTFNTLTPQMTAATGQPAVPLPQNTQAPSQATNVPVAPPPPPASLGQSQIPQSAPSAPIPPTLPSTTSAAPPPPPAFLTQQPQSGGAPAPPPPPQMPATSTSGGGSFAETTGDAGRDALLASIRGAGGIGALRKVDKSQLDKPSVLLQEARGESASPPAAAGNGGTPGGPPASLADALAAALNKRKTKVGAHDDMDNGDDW

No constants are given. Whether binding was seen depends on the method and setting. Some binding calls cover weakened binding; strength is not graded here.

The target in one experiment is Apl1 (S. cerevisiae) (UniProt P27351). Nature of the experiment: condition: 1000 nM (only Kdeff-values < 1000 nM are shown); fluorescence cross-correlation spectroscopy (FCCS); in the cytoplasm of living yeast cells; first-named protein green (3myeGFP or 1myeGFP; eGFP for Don1), second red (3mCherry); self-interaction in diploid strains with one allele of each colour; apparent or effective KD (Kdeff) from single-cell measurements; only Kdeff values < 1000 nM are shown; values for self-interactions are upper limits.

A further experiment addresses T1, Apl3 (S. cerevisiae, UniProt P38065 1-1025).
T1 construct: Apl3, subunit of the AP2 complex, S. cerevisiae; also called Apl3-3myeGFP; Apl3-3mCherry; source: chromosomally tagged at the endogenous locus, in the cytoplasm of living S. cerevisiae cells
T1 sequence (looked up): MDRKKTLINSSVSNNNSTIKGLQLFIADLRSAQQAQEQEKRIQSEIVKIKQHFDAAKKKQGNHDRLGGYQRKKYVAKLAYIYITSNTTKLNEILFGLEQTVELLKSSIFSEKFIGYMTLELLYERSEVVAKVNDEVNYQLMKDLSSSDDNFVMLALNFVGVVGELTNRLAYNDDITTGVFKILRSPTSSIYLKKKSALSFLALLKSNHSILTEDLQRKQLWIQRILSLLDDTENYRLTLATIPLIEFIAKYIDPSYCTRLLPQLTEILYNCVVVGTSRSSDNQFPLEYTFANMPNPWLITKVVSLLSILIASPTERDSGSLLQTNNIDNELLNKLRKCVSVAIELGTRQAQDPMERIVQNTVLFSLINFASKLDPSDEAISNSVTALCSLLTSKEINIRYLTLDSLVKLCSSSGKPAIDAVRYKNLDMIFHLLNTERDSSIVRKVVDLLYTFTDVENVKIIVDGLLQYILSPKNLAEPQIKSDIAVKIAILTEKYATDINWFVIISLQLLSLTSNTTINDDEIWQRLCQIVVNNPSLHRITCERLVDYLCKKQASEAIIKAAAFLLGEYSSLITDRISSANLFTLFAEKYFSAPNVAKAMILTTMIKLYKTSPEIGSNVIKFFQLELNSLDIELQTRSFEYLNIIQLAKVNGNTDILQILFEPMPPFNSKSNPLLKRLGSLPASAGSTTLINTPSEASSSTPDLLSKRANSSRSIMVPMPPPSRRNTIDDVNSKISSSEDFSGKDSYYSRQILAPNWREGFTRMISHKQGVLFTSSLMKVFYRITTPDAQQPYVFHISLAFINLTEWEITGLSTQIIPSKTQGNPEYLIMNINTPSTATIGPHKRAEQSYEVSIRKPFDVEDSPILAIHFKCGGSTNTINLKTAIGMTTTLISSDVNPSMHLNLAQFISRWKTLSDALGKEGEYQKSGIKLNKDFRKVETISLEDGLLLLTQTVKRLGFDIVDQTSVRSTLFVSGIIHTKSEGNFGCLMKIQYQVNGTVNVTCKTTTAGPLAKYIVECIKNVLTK
Kind of experiment: fluorescence cross-correlation spectroscopy (FCCS); living yeast cells, observation volume in the cytoplasm; one protein tagged with (3)myeGFP/eGFP and the other with 3mCherry in the same strain; apparent (effective) KD; interactions up to ~1 μM detectable.

In a further experiment the target is Las17 (S. cerevisiae) (UniProt Q12446). The experiment is described as above.
The next experiment addresses T2, Sla1 (S. cerevisiae, UniProt P32790 1-1244).
T2 construct: Sla1, S. cerevisiae; also called Sla1-3myeGFP; Sla1-3mCherry; source: chromosomally tagged at the endogenous locus, in the cytoplasm of living S. cerevisiae cells
T2 sequence (looked up): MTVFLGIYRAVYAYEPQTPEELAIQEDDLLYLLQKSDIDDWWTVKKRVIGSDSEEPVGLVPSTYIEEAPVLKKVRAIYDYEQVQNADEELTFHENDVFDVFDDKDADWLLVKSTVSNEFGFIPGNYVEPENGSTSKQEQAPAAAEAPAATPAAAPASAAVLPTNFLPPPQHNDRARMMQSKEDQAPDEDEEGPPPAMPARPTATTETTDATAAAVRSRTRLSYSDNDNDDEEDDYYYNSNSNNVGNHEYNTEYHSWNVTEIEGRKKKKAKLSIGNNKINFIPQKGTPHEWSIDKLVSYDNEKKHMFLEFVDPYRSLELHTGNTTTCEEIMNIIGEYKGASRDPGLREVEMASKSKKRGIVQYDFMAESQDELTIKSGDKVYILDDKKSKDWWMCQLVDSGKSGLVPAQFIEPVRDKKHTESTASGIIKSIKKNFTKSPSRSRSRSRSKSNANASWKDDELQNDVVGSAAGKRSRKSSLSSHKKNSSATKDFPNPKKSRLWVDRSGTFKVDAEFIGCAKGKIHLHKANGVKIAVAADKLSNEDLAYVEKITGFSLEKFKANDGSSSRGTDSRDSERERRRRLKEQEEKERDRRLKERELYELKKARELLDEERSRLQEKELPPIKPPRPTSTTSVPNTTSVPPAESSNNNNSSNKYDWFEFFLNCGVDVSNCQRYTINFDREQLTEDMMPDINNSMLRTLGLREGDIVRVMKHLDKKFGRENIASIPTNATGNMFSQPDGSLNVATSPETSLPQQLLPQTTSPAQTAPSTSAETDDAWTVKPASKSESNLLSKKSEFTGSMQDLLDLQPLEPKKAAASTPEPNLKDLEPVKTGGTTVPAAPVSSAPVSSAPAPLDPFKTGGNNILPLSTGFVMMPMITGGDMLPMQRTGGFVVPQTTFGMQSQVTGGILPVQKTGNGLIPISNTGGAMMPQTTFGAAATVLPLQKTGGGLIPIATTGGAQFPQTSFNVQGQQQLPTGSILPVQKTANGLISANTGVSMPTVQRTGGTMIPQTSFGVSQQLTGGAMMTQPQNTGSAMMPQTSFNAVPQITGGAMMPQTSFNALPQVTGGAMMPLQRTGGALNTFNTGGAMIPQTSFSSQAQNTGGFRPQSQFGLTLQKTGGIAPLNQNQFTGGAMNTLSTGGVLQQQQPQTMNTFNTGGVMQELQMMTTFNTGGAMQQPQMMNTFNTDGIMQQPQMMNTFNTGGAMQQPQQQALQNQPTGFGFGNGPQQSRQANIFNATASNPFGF
Described as above.

B1: Apl1 (natural protein, S. cerevisiae, UniProt P27351 1-700, looked up)
chain: MSDQKVFARYKANEIVTDLQHFGVKKFKSNITRRKNALRKIIANLVLGNYGEMSVLFSELLKFWQIEDDLEVKRICHEYIRVIGALKPQQAREALPFIMDDFKSRDEKLQIMALRTLVLVPVKELSDQAFDCIISLVNHKSPPEQVTRTAIYALLDLDEIDHERVLGLSSILHDIVKAQSSSPEVIVAALHTLYSIHEKNANMEPFRIPLELAFDMLELLPELNEWNKATVLEVLTTSVVPQHYLDTHEMIELALPYLQQVNTYVVLNSLKFIMYLLNYVDVIKETLAEKLSNSVIALLDKPPELQFLVLRNVILLLLSRESSLLRLDISYFFIEYNDPIYIKDTKLECLYLLANKETLPRILEELEQYATDIDIQMSRKSVRAIGNLAVKLDEDSVHDCVAVLLDLLEFGVDYVVQEIISVFRNILRKYPNNFKANVTELVKHTEVVQEPESKNAMIWIITQYSDVIPNYLELFRVFSSNMFSETLEVQFSILNSAIKFFIRSPTKETEELCMDLLKGCIDHENNPDLRDKTLMYWRLLSLTKTSRISNAITFESLKSVLDGELPLIEMNTKLDPTVLEELELNIGTIVSIYLKPVSHIFRLNKTKLLPQSPILNPNKDLLPVVGNSFPPTGANRDRQNSESQSSTKSRKTAMMDDYDKPAEKINQLKGKRKSSSNNPSKLSRKPSTLLRKLSMKRPFS
notes: Apl1, subunit of the AP2 complex, S. cerevisiae; also called Apl1-1myeGFP; Apl1-3mCherry; source: chromosomally tagged at the endogenous locus, in the cytoplasm of living S. cerevisiae cells
B1: the binding result in the experiment with Apl1 (S. cerevisiae) is listed as “no binding”; in the experiment with Apl3, “binds”.

B2: Bzz1 (natural protein, S. cerevisiae, UniProt P38822 1-633, looked up)
chain: MSADLSIGNEIKDSFKETHKWVQNNLKWLKDIEQFYRERAKLEKDYSERLSRLSAEYFNKKSSTSVPISVGDTPTTTPGSIEAAGVVAWNEILSQTDMISKDHDQLSTDFENHVANQLSGLFTKLDMTLSKINGFNNDMVNKKDNIYHELEKAKKDYDEACSTMEMARNRYTKASNDRNKKKLDEKEMEMNKCKNEYLIKINQANRTKDKYYFQDVPEVLDLLQDVNEAKTLFLNDLWLKAASVENDLGANVSKRLQAANSVVKQNKPSLNTAIFIKHNLKNWKEPQDFVYKPSPVWHDDEKFAVPSSLEVEDLRIKLAKAENDYNSLQDKTQNELSKLSTLNKIKHEMKTNEDNINATKFYDTLKEYLNVVSPFTSHETLKLQAEVQIESIQNNVPEEYDLSTDNIDLSKTKKKSGIFSKFKHNILNVDSKPSSGGSTGNGNGGPLHITSLFNTSRRTRLGSAPNNAGEDSDNNSIRTTSTNNTKKTTQNSSDDGKNKVLYAYVQKDDDEITITPGDKISLVARDTGSGWTKINNDTTGETGLVPTTYIRISSAATVKANDRGPAPEVPPPRRSTLPVRTMEAIYAYEAQGDDEISIDPGDIITVIRGDDGSGWTYGECDGLKGLFPTSYCK
notes: Bzz1, S. cerevisiae; also called Bzz1-3myeGFP; Bzz1-3mCherry; source: chromosomally tagged at the endogenous locus, in the cytoplasm of living S. cerevisiae cells
Regarding B2, the binding entry with Las17 (S. cerevisiae) and with Sla1 was “binds weakly” throughout.
